Assay results as given in article doi:10.1101/2024.05.31.596776.
Where two headings read alike, the source gives them in different places. No constants are given. Whether binding was seen depends on the method and setting. In cells and extracts the contact can be indirect. Some binding calls cover weakened binding; strength is not graded here.

By UniProt entry, the sequences of proteins in these tests, tags left out. Where a name states a change or a piece, a line headed by the entry shows the natural chain unless it says otherwise. Chains listed by the source or under a name are the forms on record and can include a tag or linker. Residues count along the entry.
UniProt Q96CV9: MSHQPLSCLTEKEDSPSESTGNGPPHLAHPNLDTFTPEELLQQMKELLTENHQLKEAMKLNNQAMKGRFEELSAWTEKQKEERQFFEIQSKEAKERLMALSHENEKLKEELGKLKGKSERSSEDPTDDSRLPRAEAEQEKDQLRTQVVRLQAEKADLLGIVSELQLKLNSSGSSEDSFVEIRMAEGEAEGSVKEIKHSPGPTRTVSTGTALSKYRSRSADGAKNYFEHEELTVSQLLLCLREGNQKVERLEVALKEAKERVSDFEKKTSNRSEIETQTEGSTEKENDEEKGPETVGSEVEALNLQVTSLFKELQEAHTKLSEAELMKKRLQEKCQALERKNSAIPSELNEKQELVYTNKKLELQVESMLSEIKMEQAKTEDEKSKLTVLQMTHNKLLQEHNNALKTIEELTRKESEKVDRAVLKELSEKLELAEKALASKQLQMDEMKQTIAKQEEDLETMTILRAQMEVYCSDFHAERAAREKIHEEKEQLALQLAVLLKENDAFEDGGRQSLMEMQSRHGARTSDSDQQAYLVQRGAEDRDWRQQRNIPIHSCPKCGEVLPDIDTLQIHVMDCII
OPTN_(217-577)-GFP: residues 217-577 of Q96CV9
OPTN_(Δ474-479)-GFP (Q96CV9, form named): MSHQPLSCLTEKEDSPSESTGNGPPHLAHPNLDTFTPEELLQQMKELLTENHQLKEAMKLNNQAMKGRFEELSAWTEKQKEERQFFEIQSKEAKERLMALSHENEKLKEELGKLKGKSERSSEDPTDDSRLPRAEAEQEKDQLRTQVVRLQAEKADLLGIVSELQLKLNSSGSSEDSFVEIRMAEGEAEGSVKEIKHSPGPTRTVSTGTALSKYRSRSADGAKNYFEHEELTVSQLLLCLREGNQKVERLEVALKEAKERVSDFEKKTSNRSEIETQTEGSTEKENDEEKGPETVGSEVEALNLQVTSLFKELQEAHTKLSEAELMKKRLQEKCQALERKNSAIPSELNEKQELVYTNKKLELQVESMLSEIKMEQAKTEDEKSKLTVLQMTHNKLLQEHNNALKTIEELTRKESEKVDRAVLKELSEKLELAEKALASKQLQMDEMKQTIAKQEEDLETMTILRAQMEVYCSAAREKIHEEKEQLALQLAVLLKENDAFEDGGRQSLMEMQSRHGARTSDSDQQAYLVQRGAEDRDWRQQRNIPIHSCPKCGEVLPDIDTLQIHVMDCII
UniProt O75381: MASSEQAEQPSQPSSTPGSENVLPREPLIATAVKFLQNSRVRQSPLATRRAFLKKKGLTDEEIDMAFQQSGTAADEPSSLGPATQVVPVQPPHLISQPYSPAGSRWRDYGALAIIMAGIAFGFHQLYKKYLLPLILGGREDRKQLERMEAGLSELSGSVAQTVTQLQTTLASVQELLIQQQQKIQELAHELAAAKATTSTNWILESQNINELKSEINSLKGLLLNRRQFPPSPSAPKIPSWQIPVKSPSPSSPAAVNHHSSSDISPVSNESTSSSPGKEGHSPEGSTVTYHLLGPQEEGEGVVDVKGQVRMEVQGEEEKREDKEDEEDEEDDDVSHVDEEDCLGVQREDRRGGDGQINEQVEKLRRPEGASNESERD

Experiments:
Experiment in all cases: co-IP
OPTN_(1-577)-GFP (human) [1] = target: OPTN_(1-577)-GFP (human) (UniProt Q96CV9)
OPTN_(D474N)-GFP (human) = OPTN_(D474N)-GFP (human) (UniProt Q96CV9)
OPTN_(1-577)-GFP (human) [2] = target: OPTN_(1-577)-GFP (human) (UniProt Q96CV9); remark: listed apart in the source
[3] = target: OPTN_(217-577)-GFP (human) (UniProt Q96CV9)
[4] = target: OPTN_(Δ474-479)-GFP (human) (UniProt Q96CV9)
[5] = target: PEX14_(1-377)-GFP (human) (UniProt O75381)

binding (OPTN_(1-577)-GFP (human) [1])	binding (OPTN_(D474N)-GFP (human))	binding (OPTN_(1-577)-GFP (human) [2])	binding [3]	binding [4]	binding [5]	Substance
binds	–	–	–	–	–	endogenous PEX14 (from UniProt O75381 1-377)
binds	binds	binds	binds	binds	–	non-tagged HsPEX14 (from UniProt O75381 1-377)
–	–	–	–	–	binds	non-tagged OPTN_(1-577) (from UniProt Q96CV9 1-577)
